From article PMC7066533 (Frontiers in Pharmacology, 2020)

Experiment: general procedure: Fmoc solid-phase peptide synthesis; Wang resin preloaded with Fmoc-Phe (0.5 g, Phe loading 0.4–0.8 mmol/g); TBTU/HOBt/DIPEA; HATU/DIPEA for cyclization
Settings: cyclisation step, DAD 210 nm

PEPTIDE1{F.G.[bAla].[dW]}$PEPTIDE1,PEPTIDE1,1:R1-4:R2$$$V2.0
final HPLC purity: >95%

Some peptides are written in HELM: one residue between dots, names in brackets for other building blocks, links after the first $.
